# The other results are listed elsewhere or left out.
# B1: Pwp1 (Candida glabrata) (protein)
# chain: MGSSHHHHHHSSGLVPRGSHMASANPISITNVCQFPDNWARTAGFQATTVRLGLTIASNTYKELLNYPGLFNFATQKATVTQPNFSISGFPFFTGLYGLTVWPINLLVELQGYFVPPESGNYTFTLQGSDDAAILFFANPSTFACGSQNDWPQPREADITVTDTLVPSRTLYLVKGVAYPIRIAYYNGSGDGKLNVSFKDPSGTTHTDWKGYVWQYSNTCSTCTYT
# Assays:
# Test in all cases: glycan array binding signal (z-score within array); higher = stronger binding
# Details in all cases: glycan notation: IUPAC condensed, linker removed
# [1] = target: Neu5Ac(a2-3)Gal(b1-3)GlcNAc6S
# In short: (§1)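 Arrays were curated from the Consortium for Functional Glycomics database, 3228 in total, and kept only where the protein sequence was available. Binding is expressed as a within-array Z-score. This score was averaged across arrays of the same protein sequence at different concentrations or buffers and across linkers, and negative values can be read as non-binding.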
# [2] = target: Neu5Ac(a2-3)Gal(b1-3)[Fuc(a1-4)]GlcNAc
# In short: as §1
# [3] = target: Neu5Ac(a2-3)Gal(b1-3)[Fuc(a1-4)]GlcNAc(b1-3)Gal(b1-3)[Fuc(a1-4)]GlcNAc
# In short: as §1
# [4] = target: Neu5Ac(a2-3)Gal(b1-3)[Fuc(a1-4)]GlcNAc(b1-3)Gal(b1-4)[Fuc(a1-3)]GlcNAc
# In short: as §1
# [5] = target: Neu5Ac(a2-3)Gal(b1-3)[GlcNAc(b1-6)]GalNAc
# In short: as §1
# [6] = target: Neu5Ac(a2-3)Gal(b1-3)[Neu5Ac(a2-6)]GalNAc
# In short: as §1
# [7] = target: Neu5Ac(a2-3)Gal(b1-3)[Neu5Ac(a2-6)]GlcNAc(b1-3)[Fuc(a1-3)[Gal(b1-4)]GlcNAc(b1-6)]Gal(b1-4)Glc
# In short: as §1
# [8] = target: Neu5Ac(a2-3)Gal(b1-3)]Neu5Ac(a2-3)Gal(b1-4)]GlcNAc
# In short: as §1
# [9] = target: Neu5Ac(a2-3)Gal(b1-4)Glc
# In short: as §1
# [10] = target: Neu5Ac(a2-3)Gal(b1-4)GlcNAc
# In short: as §1
# [11] = target: Neu5Ac(a2-3)Gal(b1-4)GlcNAc(b1-2)Man
# In short: as §1
# [12] = target: Neu5Ac(a2-3)Gal(b1-4)GlcNAc(b1-2)Man(a1-3)[GlcNAc(b1-4)][Neu5Ac(a2-3)Gal(b1-4)GlcNAc(b1-2)Man(a1-6)]Man(b1-4)GlcNAc(b1-4)GlcNAc
# In short: as §1
# [13] = target: Neu5Ac(a2-3)Gal(b1-4)GlcNAc(b1-2)Man(a1-3)[Neu5Ac(a2-3)Gal(b1-4)GlcNAc(b1-2)Man(a1-6)]Man(b1-4)GlcNAc(b1-4)GlcNAc
# In short: as §1
# [14] = target: Neu5Ac(a2-3)Gal(b1-4)GlcNAc(b1-2)Man(a1-3)[Neu5Ac(a2-3)Gal(b1-4)GlcNAc(b1-2)Man(a1-6)]Man(b1-4)GlcNAc(b1-4)[Fuc(a1-6)]GlcNAc
# In short: as §1
# [15] = target: Neu5Ac(a2-3)Gal(b1-4)GlcNAc(b1-2)Man(a1-3)[Neu5Ac(a2-6)Gal(b1-4)GlcNAc(b1-2)Man(a1-6)]Man(b1-4)GlcNAc(b1-4)GlcNAc
# In short: as §1
# [16] = target: Neu5Ac(a2-3)Gal(b1-4)GlcNAc(b1-2)[Neu5Ac(a2-3)Gal(b1-4)GlcNAc(b1-4)]Man(a1-3)[GlcNAc(b1-4)][Neu5Ac(a2-3)Gal(b1-4)GlcNAc(b1-2)[Neu5Ac(a2-3)Gal(b1-4)GlcNAc(b1-6)]Man(a1-6)]Man(b1-4)GlcNAc(b1-4)GlcNAc
# In short: as §1
# [17] = target: Neu5Ac(a2-3)Gal(b1-4)GlcNAc(b1-2)[Neu5Ac(a2-3)Gal(b1-4)GlcNAc(b1-4)]Man(a1-3)[GlcNAc(b1-4)][Neu5Ac(a2-3)Gal(b1-4)GlcNAc(b1-4)Man(a1-6)]Man(b1-4)GlcNAc(b1-4)GlcNAc
# In short: as §1
# [18] = target: Neu5Ac(a2-3)Gal(b1-4)GlcNAc(b1-2)[Neu5Ac(a2-3)Gal(b1-4)GlcNAc(b1-6)]Man(a1-6)[Neu5Ac(a2-3)Gal(b1-4)GlcNAc(b1-2)Man(a1-3)][GlcNAc(b1-4)]Man(b1-4)GlcNAc(b1-4)GlcNAc
# In short: as §1
# [19] = target: Neu5Ac(a2-3)Gal(b1-4)GlcNAc(b1-3)Gal
# In short: as §1
# [20] = target: Neu5Ac(a2-3)Gal(b1-4)GlcNAc(b1-3)Gal(b1-3)GlcNAc
# In short: as §1
# [21] = target: Neu5Ac(a2-3)Gal(b1-4)GlcNAc(b1-3)Gal(b1-4)GlcNAc
# In short: as §1
# [22] = target: Neu5Ac(a2-3)Gal(b1-4)GlcNAc(b1-3)Gal(b1-4)GlcNAc(b1-2)Man(a1-3)[Neu5Ac(a2-3)Gal(b1-4)GlcNAc(b1-3)Gal(b1-4)GlcNAc(b1-2)Man(a1-6)]Man(b1-4)GlcNAc(b1-4)GlcNAc
# In short: as §1
# [23] = target: Neu5Ac(a2-3)Gal(b1-4)GlcNAc(b1-3)Gal(b1-4)GlcNAc(b1-3)Gal(b1-4)GlcNAc
# In short: as §1
# [24] = target: Neu5Ac(a2-3)Gal(b1-4)GlcNAc(b1-3)Gal(b1-4)GlcNAc(b1-3)Gal(b1-4)GlcNAc(b1-2)Man(a1-3)[Neu5Ac(a2-3)Gal(b1-4)GlcNAc(b1-3)Gal(b1-4)GlcNAc(b1-3)Gal(b1-4)GlcNAc(b1-2)Man(a1-6)]GalNAc
# In short: as §1
# [25] = target: Neu5Ac(a2-3)Gal(b1-4)GlcNAc(b1-3)Gal(b1-4)GlcNAc(b1-3)GalNAc
# In short: as §1
# [26] = target: Neu5Ac(a2-3)Gal(b1-4)GlcNAc(b1-3)Gal(b1-4)GlcNAc(b1-3)[Neu5Ac(a2-3)Gal(b1-4)GlcNAc(b1-3)Gal(b1-4)GlcNAc(b1-6)]GalNAc
# In short: as §1
# [27] = target: Neu5Ac(a2-3)Gal(b1-4)GlcNAc(b1-3)Gal(b1-4)GlcNAc(b1-6)[Gal(b1-3)]GalNAc
# In short: as §1
# [28] = target: Neu5Ac(a2-3)Gal(b1-4)GlcNAc(b1-3)Gal(b1-4)[Fuc(a1-3)]GlcNAc
# In short: as §1
# [29] = target: Neu5Ac(a2-3)Gal(b1-4)GlcNAc(b1-3)GalNAc
# In short: as §1
# [30] = target: Neu5Ac(a2-3)Gal(b1-4)GlcNAc(b1-3)[Neu5Ac(a2-3)Gal(b1-4)GlcNAc(b1-6)]GalNAc
# In short: as §1
# [31] = target: Neu5Ac(a2-3)Gal(b1-4)GlcNAc(b1-6)GalNAc
# In short: as §1
# [32] = target: Neu5Ac(a2-3)Gal(b1-4)GlcNAc(b1-6)[Gal(b1-3)]GalNAc
# In short: as §1
# [33] = target: Neu5Ac(a2-3)Gal(b1-4)GlcNAc(b1-6)[Neu5Ac(a2-3)Gal(b1-3)]GalNAc
# In short: as §1
# [34] = target: Neu5Ac(a2-3)Gal(b1-4)GlcNAc6S
# In short: as §1
# [35] = target: Neu5Ac(a2-3)Gal(b1-4)[Fuc(a1-3)]GlcNAc
# In short: as §1
# [36] = target: Neu5Ac(a2-3)Gal(b1-4)[Fuc(a1-3)]GlcNAc(b1-2)Man
# In short: as §1
# [37] = target: Neu5Ac(a2-3)Gal(b1-4)[Fuc(a1-3)]GlcNAc(b1-3)Gal
# In short: as §1
# [38] = target: Neu5Ac(a2-3)Gal(b1-4)[Fuc(a1-3)]GlcNAc(b1-3)Gal(b1-4)GlcNAc
# In short: as §1
# [39] = target: Neu5Ac(a2-3)Gal(b1-4)[Fuc(a1-3)]GlcNAc(b1-3)Gal(b1-4)[Fuc(a1-3)]GlcNAc(b1-3)Gal(b1-4)[Fuc(a1-3)]GlcNAc
# In short: as §1
# [40] = target: Neu5Ac(a2-3)Gal(b1-4)[Fuc(a1-3)]GlcNAc(b1-3)GalNAc
# In short: as §1
# [41] = target: Neu5Ac(a2-3)Gal(b1-4)[Fuc(a1-3)]GlcNAc(b1-6)[Gal(b1-3)]GalNAc
# In short: as §1
# [42] = target: Neu5Ac(a2-3)Gal(b1-4)[Fuc(a1-3)]GlcNAc(b1-6)[Neu5Ac(a2-3)Gal(b1-3)]GalNAc
# In short: as §1
# [43] = target: Neu5Ac(a2-3)Gal(b1-4)[Fuc(a1-3)]GlcNAc6S
# In short: as §1
# [44] = target: Neu5Ac(a2-3)Gal6S(b1-4)GlcNAc
# In short: as §1
# [45] = target: Neu5Ac(a2-3)Gal6S(b1-4)[Fuc(a1-3)]GlcNAc
# In short: as §1
binder,measurement,setting,value
B1,glycan array binding signal (z-score),[1],1.35
same,glycan array binding signal (z-score),[2],-1.74
same,glycan array binding signal (z-score),[3],-0.821
same,glycan array binding signal (z-score),[4],-0.839
same,glycan array binding signal (z-score),[5],3.78
same,glycan array binding signal (z-score),[6],0.612
same,glycan array binding signal (z-score),[7],-0.315
same,glycan array binding signal (z-score),[8],-0.801
same,glycan array binding signal (z-score),[9],-0.115
same,glycan array binding signal (z-score),[10],-0.118
same,glycan array binding signal (z-score),[11],0.55
same,glycan array binding signal (z-score),[12],0.469
same,glycan array binding signal (z-score),[13],-2.28
same,glycan array binding signal (z-score),[14],0.747
same,glycan array binding signal (z-score),[15],-0.498
same,glycan array binding signal (z-score),[16],-1.42
same,glycan array binding signal (z-score),[17],0.354
same,glycan array binding signal (z-score),[18],2.29
same,glycan array binding signal (z-score),[19],-0.925
same,glycan array binding signal (z-score),[20],-0.345
same,glycan array binding signal (z-score),[21],1.27
same,glycan array binding signal (z-score),[22],-1.69
same,glycan array binding signal (z-score),[23],-1.57
same,glycan array binding signal (z-score),[24],0.775
same,glycan array binding signal (z-score),[25],0.411
same,glycan array binding signal (z-score),[26],-1.07
same,glycan array binding signal (z-score),[27],-0.577
same,glycan array binding signal (z-score),[28],-1.03
same,glycan array binding signal (z-score),[29],-0.411
same,glycan array binding signal (z-score),[30],-0.512
same,glycan array binding signal (z-score),[31],0.128
same,glycan array binding signal (z-score),[32],0.893
same,glycan array binding signal (z-score),[33],-0.22
same,glycan array binding signal (z-score),[34],-0.477
same,glycan array binding signal (z-score),[35],0.918
same,glycan array binding signal (z-score),[36],-1.41
same,glycan array binding signal (z-score),[37],0.574
same,glycan array binding signal (z-score),[38],-2.11
same,glycan array binding signal (z-score),[39],0.456
same,glycan array binding signal (z-score),[40],-0.259
same,glycan array binding signal (z-score),[41],-0.909
same,glycan array binding signal (z-score),[42],-1.79
same,glycan array binding signal (z-score),[43],-1.03
same,glycan array binding signal (z-score),[44],-1.03
same,glycan array binding signal (z-score),[45],0.436

# Some of the entries so far, as tab-separated lines.
binder	measurement	setting	value
B1	glycan array binding signal (z-score)	[3]	-0.821
same	glycan array binding signal (z-score)	[4]	-0.839
same	glycan array binding signal (z-score)	[5]	3.78
